Data from PMC8514664.
These are yes or no findings as the source states them, for the method shown. In cells and extracts the contact can be indirect. Binding can be weak; no strength is given.

Chains of the proteins cited; added tags and fusions are not shown. Lines headed by an entry give the natural chain unless they say otherwise; changes in a name come on top.
UniProt P67775: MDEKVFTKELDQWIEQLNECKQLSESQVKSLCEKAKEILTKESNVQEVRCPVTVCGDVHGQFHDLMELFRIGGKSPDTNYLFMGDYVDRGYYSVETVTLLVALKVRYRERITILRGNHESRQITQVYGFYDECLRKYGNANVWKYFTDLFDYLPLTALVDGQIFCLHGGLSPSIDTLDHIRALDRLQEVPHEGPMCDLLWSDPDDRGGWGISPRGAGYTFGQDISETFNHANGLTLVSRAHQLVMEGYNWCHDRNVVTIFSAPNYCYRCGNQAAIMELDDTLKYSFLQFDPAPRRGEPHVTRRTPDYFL
UniProt Q9Y281: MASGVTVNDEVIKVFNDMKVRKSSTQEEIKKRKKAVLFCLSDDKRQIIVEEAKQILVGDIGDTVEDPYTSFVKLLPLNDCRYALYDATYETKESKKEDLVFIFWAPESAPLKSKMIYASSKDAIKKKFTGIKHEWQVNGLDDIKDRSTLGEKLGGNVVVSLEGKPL

Assays:
[1] = biological target: protein phosphatase 2 (PP2A) (human (endogenous in SK-N-SH APPwt)) (UniProt P67775); test: co-IP; lysate (around 500 ug) of P.g-LPS treated SK-N-SH APPwt cells, pre-cleared with control IgG; 2 ug anti-Cofilin 2 or anti-PP2A antibody, protein A/G PLUS-agarose, 4°C, washed five times with RIPA buffer; Western blot of the other protein; IgG control
[2] = biological target: Cofilin 2 (human (endogenous in SK-N-SH APPwt)) (UniProt Q9Y281); test: as above

| binding [1] | binding [2] | Substance |
| --- | --- | --- |
| binds |  | Cofilin 2 (from UniProt Q9Y281 1-166) |
|  | binds | protein phosphatase 2 (PP2A) (from UniProt P67775) (enzyme) |
